Test: general procedure: solution-phase peptide synthesis; DCC/HOBt
Details: for cyclisation yield: cyclisation step; for step yield: late stage modification step

Cyclo[Ala-Arg(Tos)-Pro-Ala-Lys(Z′)]
cyclisation yield (run 1): 5% | cyclisation yield (run 2): 18% | cyclisation yield (run 3): 9%

Cyclo[Gly-Arg(Tos)-Pro-Ala-Lys(Z′)]
cyclisation yield (run 1): 31% | cyclisation yield (run 2): 29%

H-Ala-Arg-Pro-Ala-LysOH (ARPAK)
step yield: 80%

H-Gln-Arg-Pro-Ala-LysOH
step yield: 80%

H-Gly-Arg-Pro-Ala-LysOH (GRPAK; GP6A)
step yield: 78%

H-Lys-Arg-Pro-Ala-LysOH (KRPAK; KP6A)
step yield: 82%

cyclo(ARPAK)
step yield: 53%

cyclo(GRPAK)
step yield: 64%

cyclo(KRPAK)
step yield: 60%
